Experimental data taken from the supplement of paper PMC4604168 (melanoma cell lines).
The list shows a part of the results. Many values rest on one well or one pass, so single values are uncertain.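 The apoptosis fraction was the count of cleaved-PARP antibody-stained nuclei relative to all DNA-stained nuclei, imaged in 1,536-well plates. Screening doses were set so most cells survived, and baseline and induced cleaved-PARP levels vary greatly across cell lines.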

Key:
Test in all cases: cleaved PARP positive nuclei fraction relative to DMSO control; melanoma cells; higher = more apoptosis
Details in all cases: library dose: low library concentration; 72 h
[1] = test system: CBRC034 (line from a melanoma biopsy)
[2] = test system: COLO792
[3] = test system: COLO800
[4] = test system: COLO829
[5] = test system: G361
[6] = test system: IPC-298
[7] = test system: IST-MEL1
[8] = test system: LB2518-MEL
[9] = test system: LOXIMVI
[10] = test system: MZ2-MEL
[11] = test system: MeWo
[12] = test system: RPMI7951
[13] = test system: RVH-421
[14] = test system: SkMel28
[15] = test system: SkMel30
[16] = test system: SkMel5
[17] = test system: UACC257
[18] = test system: UACC62

SMILES | cleaved PARP positive nuclei fraction [1] | cleaved PARP positive nuclei fraction [2] | cleaved PARP positive nuclei fraction [3] | cleaved PARP positive nuclei fraction [4] | cleaved PARP positive nuclei fraction [5] | cleaved PARP positive nuclei fraction [6] | cleaved PARP positive nuclei fraction [7] | cleaved PARP positive nuclei fraction [8] | cleaved PARP positive nuclei fraction [9] | cleaved PARP positive nuclei fraction [10] | cleaved PARP positive nuclei fraction [11] | cleaved PARP positive nuclei fraction [12] | cleaved PARP positive nuclei fraction [13] | cleaved PARP positive nuclei fraction [14] | cleaved PARP positive nuclei fraction [15] | cleaved PARP positive nuclei fraction [16] | cleaved PARP positive nuclei fraction [17] | cleaved PARP positive nuclei fraction [18]
Cc1cc([N+](=O)[O-])ccc1NS(=O)(=O)c1cc(Cl)ccc1Cl + c1cc(-c2cnn3cc(-c4ccc(OCCN5CCCCC5)cc4)cnc23)ccn1 [Dorsomorphin] (first compound 1 µM, partner dose 0.4 µM) | 407% | 85.7% | 83.9% | 102% | 320% | 60.3% | 261% | 89.4% | 70% | 90.9% | 125% | 197% | 17.9% | 73.9% | 58.4% | 197% | 135% | 188%
CN(C)S(=O)(=O)c1ccc2c(c1)/C(=C/c1cc3c([nH]1)CCCC3)C(=O)N2 + O=c1cc(-c2cccc3c2Sc2ccccc2S3)oc(N2CCOCC2)c1 [KU55933] (first compound 0.4 µM, partner dose 1 µM) | 189% | 94.4% | 120% | 87.3% | 37.4% | 42.3% | 87.7% | 284% | 50.8% | 115% | 155% | 40.3% | 28.6% | 196% | 7.95% | 170% | 178% | 190%
CN(C)S(=O)(=O)c1ccc2c(c1)/C(=C/c1cc3c([nH]1)CCCC3)C(=O)N2 + COc1cc2ncnc(Nc3ccc(Oc4ccccc4)cc3)c2cc1OC [SrcI1] (first compound 0.4 µM, partner dose 2 µM) | 94.4% | 84.1% | 130% | 57.7% | 34.3% | 176% | 65.1% | 86.9% | 71.6% | 71.1% | 141% | 222% | 54.6% | 151% | 60.9% | 111% | 220% | 114%
O=S(=O)(c1ccccc1)N(CC(F)(F)F)c1ccc(C(O)(C(F)(F)F)C(F)(F)F)cc1 + Oc1nc(-c2ccc(C(F)(F)F)cc2)nc2c1CSCC2 [XAV939] (first compound 1.4 µM, partner dose 2 µM) | 39.8% | 153% | 184% | 92.2% | 148% | 44.8% | 88.9% | 94.1% | 61.6% | 175% | 56% | 73.4% | 18.6% | 91.7% | 26.2% | 42.9% | 76% | 58.5%
COc1cc(N2CCC(N3CCN(C)CC3)CC2)ccc1Nc1ncc(Cl)c(Nc2ccccc2S(=O)(=O)C(C)C)n1 + CCCCCCCCCCCC1=C(O)C(=O)C=C(O)C1=O [Embelin] (first compound 0.08 µM, partner dose 1.2 µM) | 186% | 241% | 20.6% | 77.7% | 72.9% | 153% | 132% | 76.5% | 27.1% | 38.6% | 196% | 163% | 87.2% | 104% | 40.6% | 106% | 123% | 70.1%
COc1ccc2c(c1)CCC1C2CCC2(C)C(NCCCCCCN3C(=O)C=CC3=O)CCC12 (configuration not stated) + O=S(=O)(c1ccccc1)N(CC(F)(F)F)c1ccc(C(O)(C(F)(F)F)C(F)(F)F)cc1 [T0901317] (first compound 0.4 µM, partner dose 1.4 µM) | 293% | 55.6% | 135% | 105% | 72.9% | 200% | 107% | 75.1% | 43.3% | 230% | 51.5% | 105% | 42.4% | 124% | 26.9% | 90.9% | 98.2% | 67.7%
c1cc(-c2cnn3cc(-c4ccc(OCCN5CCCCC5)cc4)cnc23)ccn1 [Dorsomorphin] + CC(C)CCN1c2nc(Nc3cc(F)c(O)c(F)c3)ncc2N(C)C(=O)C1C [BID1870] (first compound 0.4 µM, partner dose 0.2 µM) | 112% | 74.3% | 76.2% | 34.8% | 180% | 81.3% | 58.6% | 104% | 41.7% | 121% | 120% | 77.2% | 50.2% | 28.8% | 133% | 55.3% | 95.1% | 79.3%
COc1ccc2c(c1)CCC1C2CCC2(C)C(NCCCCCCN3C(=O)C=CC3=O)CCC12 (configuration not stated) + O=C(O)C(=O)Nc1sc2c(c1C(=O)O)CCNC2 [TCS401] (first compound 0.4 µM, partner dose 1.66667 µM) | 275% | 43.4% | 69.6% | 130% | 104% | 42.6% | 91.4% | 87% | 29.6% | 115% | 113% | 139% | 64.3% | 37.4% | 122% | 102% | 65.8% | 82.9%
N#Cc1c(O)c2c(-c3ccc(-c4ccccc4O)cc3)csc2[nH]c1=O + Cn1cc(/C=C2\C(=O)Nc3cccnc32)c2ccccc21 [GW441756] (first compound 2 µM, partner dose 0.4 µM) | 102% | 48.7% | 209% | 81.3% | 88.1% | 243% | 89.9% | 79.8% | 123% | 147% | 52.3% | 36.7% | 152% | 80.2% | 85.7% | 66.9% | 73.3% | 82.8%
